These are yes or no findings as the source states them, for the method shown. Binding seen in cells or lysates may run through a third protein. Binding can be weak; no strength is given. Where a sequence is shown, tags or fusion partners need not be part of it.
Target: T1, Flag-ETAA1 / HA-ETAA1 (UniProt Q9NY74)
T1 sequence: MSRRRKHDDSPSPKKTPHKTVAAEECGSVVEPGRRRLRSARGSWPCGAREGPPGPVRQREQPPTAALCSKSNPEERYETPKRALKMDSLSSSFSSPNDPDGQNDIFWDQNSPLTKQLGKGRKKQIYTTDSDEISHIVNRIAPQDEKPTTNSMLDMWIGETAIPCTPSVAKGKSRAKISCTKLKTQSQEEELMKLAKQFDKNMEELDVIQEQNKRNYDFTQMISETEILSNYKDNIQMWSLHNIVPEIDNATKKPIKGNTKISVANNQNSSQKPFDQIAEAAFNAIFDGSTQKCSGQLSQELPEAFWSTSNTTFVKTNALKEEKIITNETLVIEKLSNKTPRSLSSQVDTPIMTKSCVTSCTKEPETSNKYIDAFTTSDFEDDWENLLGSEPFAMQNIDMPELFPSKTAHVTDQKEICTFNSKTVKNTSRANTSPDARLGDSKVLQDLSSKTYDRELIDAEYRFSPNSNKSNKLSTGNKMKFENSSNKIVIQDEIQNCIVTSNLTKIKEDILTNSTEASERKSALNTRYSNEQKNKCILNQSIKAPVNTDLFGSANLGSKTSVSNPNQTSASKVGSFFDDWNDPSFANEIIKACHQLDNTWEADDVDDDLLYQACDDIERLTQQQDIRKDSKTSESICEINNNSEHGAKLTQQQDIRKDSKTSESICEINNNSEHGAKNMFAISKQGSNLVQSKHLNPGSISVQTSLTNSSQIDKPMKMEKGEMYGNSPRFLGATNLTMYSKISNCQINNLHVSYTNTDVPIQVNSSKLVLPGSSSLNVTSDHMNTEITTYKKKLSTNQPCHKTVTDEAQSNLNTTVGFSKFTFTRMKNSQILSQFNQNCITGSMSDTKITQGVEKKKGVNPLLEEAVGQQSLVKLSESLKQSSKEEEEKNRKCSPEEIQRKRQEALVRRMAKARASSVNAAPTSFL
Assay: co-IP; HEK293T cells transfected; NP-40 lysis buffer (in some experiments 0.75% CHAPS); anti-Flag M2 affinity gel or anti-HA agarose, 1–2 h at 4 °C; immunoblot; no AP20187 system

binding: binds
Substance: HA-ETAA1 ΔRPA (from UniProt Q9NY74)

From publication PMC7994790
